Laboratory results: patent US10730892B2, “Homoallylamines as formaldehyde-responsive triggers” (The Regents of the University of California, priority 2015, dated 2020)

Test system: HEK293T cells

## C=CCC1NC2(c3ccc(C(=O)O)cc31)c1ccc(N(C)C)cc1[Si](C)(C)c1cc(N(C)C)ccc12 (stereo not drawn) [FAP-1]
1 mM FA, 30 min
  cellular distribution after FA addition: not appreciably affected
ER-Tracker Green, BODIPY FL C5-Ceramide, LysoTracker Green DND-26, MitoTracker Green FM
  cellular distribution: organelle-targeted dyes: showed overlap with endoplasmic reticulum-, Golgi apparatus-, lysosome-, and mitochondria-targeted dyes
Hoechst 33342
  cellular distribution: nucleus: excluded from the nucleus
